From PubChem BioAssay AID493014 (National Center for Advancing Translational Sciences (NCATS), 2011)
Out of some 340,000 compounds screened, about 170 (0.05%) were called active. Inconclusive means that the source gave no clear call. Such entries were picked first, then a sample of the others. The call rests on the fitted dose curve; in most records, active means well fitted inhibition curve with a large enough effect in the signal ratio, with a control signal flat (not every such curve was filed as active); inconclusive means small, poorly fitted or top-dose-only effect, or effect the other way, or a change in a side signal; inactive means flat fitted curve, though single readings scatter; the % refers to the signal ratio. A potency beside an inconclusive call is a rough fit, not a confirmed value.

Assay: qHTS Assay to Find Inhibitors of Chronic Active B-Cell Receptor Signaling;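 on activity change, negative = inhibition: plate controls were basal doxycycline-induced cells for no effect and cells given 10 µM MG132 for full effect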
Conditions: ABC-DLBCL IkBa-CBG/CBR reporter, luminescence ratio (green luciferase fused to IkBa over red control in TMD8 lymphoma cells), 4 h; activity change, negative = inhibition: at 46.1 µM (top of the series) unless noted
In short: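 Compounds up to 46 uM were incubated four hours with TMD8 cells whose green CBG68 luciferase is fused to IkappaBalpha; red CBR luminescence normalised the signal, and concentration-effect curves were fitted to fusion, red and ratio data.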
Potency means the concentration at half of the fitted maximal effect.

Row | SMILES | activity change, negative = inhibition | Potency
1 | O=C(COC(=O)CNC(=O)C1CCCCC1)Nc1ccccc1OC(F)F | inconclusive: 4.3% | –
2 | CCOC(=O)c1nn(-c2ccc(F)cc2)c(=O)c2c(N)scc12 | – | inconclusive: 35.5 µM [falling, single point]
3 | Cc1ccc(C(=O)N/C(=C\c2ccco2)C(=O)N2CC(C)OC(C)C2)cc1C (stereo not given) | inconclusive: -6.94% | –
4 | COc1ccc(CCN(C)CCC(=O)Nc2cc(C)ccc2C)cc1OC | inconclusive: 2.99% | –
5 | COc1cc2c(cc1OC)CN(C(=O)c1ccc(S(=O)(=O)N3CCCCCC3)cc1)CC2 | inconclusive: -0.999% | –
6 | O=C(COC(=O)c1cccnc1Cl)Nc1ccc(N2CCCCC2)cc1 | inconclusive: 7.9% | –
7 | CCCc1cc(C(N)=O)c(NC(=O)c2ccco2)s1 | – | inconclusive: 2.31 µM [rising, full curve, poor fit]
8 | O=S(=O)(Nc1ccc(-c2ccc(N3CCOCC3)nn2)cc1)c1cc(Cl)ccc1Cl | inconclusive: 18.8% | –
9 | CC(=NNC(=O)CSc1nc2ccccc2o1)c1ccco1 | inconclusive: -0.415% | –
10 | Cn1cccc1C(=O)Nc1ccc(N2CCOCC2)cc1 | – | inconclusive: 20.6 µM [falling, partial curve]
11 | COc1cc(NC(=O)c2ccccc2)cc(OC)c1 | – | inconclusive: 7.08 µM [falling, partial curve]
12 | CCOC(=O)N1CCN(C(=O)CN(c2ccccc2OC)S(=O)(=O)c2ccc(OC)cc2)CC1 | – | inconclusive: 14.1 µM [rising, single point]
13 | Clc1cccc(Oc2cnc3ccccc3n2)c1 | inconclusive: -5.2% | –
14 | COc1ccccc1NC(=O)N(CCN1CCOCC1)Cc1cc2cc(C)cc(C)c2[nH]c1=O | inconclusive: 8.91% | –
15 | Cc1ccc(N2C(N)=C(C#N)C(c3cccnc3)C3=C2CC(C)(C)CC3=O)cc1 (stereo not given) | inconclusive: 16.3% | –
16 | Cc1cc(=O)c2ccccc2[nH]1 | inactive: 3.67% | –
17 | C/C(=N\NS(=O)(=O)c1ccc(Br)cc1)c1ccc2c(c1)OCO2 | inconclusive: -8.35% | –
18 | CNC(=O)c1c(NC(=O)c2ccc(S(=O)(=O)N3CCCc4ccccc43)cc2)sc2c1CCN(C)C2 | inactive: 3.94% | –
19 | Cc1ccc(S(=O)(=O)N(C)C)cc1NC(=O)COC(=O)c1ccc2ccccc2n1 | inconclusive: 1.48% | –
20 | COc1cc([N+](=O)[O-])ccc1NC(=O)COC(=O)c1ccc(NC(N)=O)cc1 | inconclusive: 3.65% | –
21 | O=C(O)C1SCCN1S(=O)(=O)c1ccc(N=NN2CCOCC2)cc1 (stereo not given) | inconclusive: 10.8% | –
22 | CC(=O)Nc1ccc(Oc2cc(C#N)c(C#N)cc2N2CCCCCC2)cc1 | inactive: -5% | –
23 | COc1ccc(NC(=O)C(Cl)=C(Cl)Cl)cn1 | inconclusive: 4.53% | –
24 | O=C(NCC(c1cccs1)N1CCOCC1)c1ccc(Cl)cc1 (stereo not given) | inactive: 4.65% | –
25 | Cc1ccc(NC(=O)Cn2cnc3c(NCc4ccccc4)ncnc32)cc1C | inconclusive: 5.13% | –
26 | CC1CCN(C(=O)CSc2nc3cccnc3n2C)CC1 | inconclusive: -10.3% | –
27 | COc1ccc(CCN2C(=NC(=O)CC(C)C)SC3CS(=O)(=O)CC32)cc1OC (stereo not given) | inactive: -28.6% | –

Row | SMILES | activity change, negative = inhibition | Potency
28 | CCN1CCN(C(c2cc(OC)ccc2OC)c2nnnn2Cc2ccccc2)CC1 (stereo not given) | inconclusive: -0.168% | –
29 | CC(=O)Nc1cccc(NC(=O)c2cccc(-c3ccc(O)cc3)c2)c1 | – | inconclusive: 22.4 µM [falling, partial curve, poor fit]
30 | COc1ccc(-c2nsc(SCC(=O)Nc3ccc4c(c3)OCO4)n2)cc1 | inconclusive: -22.2% | –
31 | NC(=O)CC[C@@H]1NC(=O)[C@@H]2CCCN2C(=O)c2cc([N+](=O)[O-])cc(I)c2NCCC[C@@H](C(N)=O)NC1=O | inactive: 0.144% | –
32 | COc1ccc(/C=N/n2c(COc3ccccc3)n[nH]c2=S)cc1OC | inconclusive: -6.65% | –
33 | Cc1ccc(CNc2ccc(N3C(=O)CCCC3=O)cc2[N+](=O)[O-])cc1 | inconclusive: 6.49% | –
34 | COc1ccc(C(=O)OCC(N)=O)cc1[N+](=O)[O-] | inconclusive: -1.95% | –
35 | CC(C)(C)OC(=O)NCCCCCNC(=O)c1nc[nH]c1C(=O)NCc1ccc(CNC(=O)OC(C)(C)C)cc1 | – | inconclusive: 16.4 µM [falling, partial curve, poor fit]
36 | S=C(NCc1ccccc1)Nc1ccc2ccccc2c1 | – | inconclusive: 28.2 µM [falling, partial curve, poor fit]
37 | CC(=O)NC1(C(F)(F)F)C(=O)Nc2c1c(=O)[nH]c(=O)n2-c1ccccc1 (stereo not given) | inconclusive: 7.95% | –
38 | CC(=O)Oc1ccc2c(=O)oc(-c3ccccc3C)nc2c1 | – | inconclusive: 31.6 µM [rising, single point]
39 | CCOc1cc2c3c(c1)C1(C(=O)N3C(C)(C)C=C2C)C(C#N)=C(N)Oc2cc(O)ccc21 (stereo not given) | inconclusive: 0.138% | –
40 | CCN1C(=O)c2cccc3c(S(=O)(=O)NCC4CCCO4)ccc1c23 (stereo not given) | inconclusive: 6.89% | –
41 | CCCCCCSc1ccc([C@H]2N[C@@](C)(C(=O)OC)[C@H]3C(=O)N(C)C(=O)[C@@H]23)cc1 | inactive: -5.8% | –
42 | Cc1ccc(S(=O)(=O)CCC(=O)c2cccc([N+](=O)[O-])c2)cc1 | – | inconclusive: 5.62 µM [cytotoxic, single point]
43 | CCN(CC)C(=O)c1c(-c2ccccc2)oc2ccc(O)cc12 | inactive: 0.225% | –
44 | CCCn1c(=NC(=O)CS(=O)(=O)c2ccccc2)sc2cc(S(C)(=O)=O)ccc21 | inconclusive: 0.356% | –
45 | COc1ccc2cc(CN(CC3CCCO3)C(=S)Nc3ccccc3)c(=O)[nH]c2c1 (stereo not given) | inconclusive: 23.6% | –
46 | CC(=O)NNC(=O)c1[nH]c2ccc(Br)cc2c1-c1ccccc1 | inconclusive: -7.35% | –
47 | CC(C)c1ccc(C(=O)NCCCN(C)C)cc1 | inconclusive: 4.66% | –
48 | COc1ccc(NC(=O)CCC(=O)OCc2ccc(Br)cc2)cc1 | inconclusive: 0.871% | –
49 | N#Cc1c2c(c(-c3ccccc3)[nH]c1=O)CCCC2 | inconclusive: 2.43% | –
50 | CCCNC(=O)CSc1nc2[nH]ncc2c(=O)[nH]1 | inactive: -3.73% | –
51 | O=C(NNC(=S)NC(=O)c1ccccc1[N+](=O)[O-])c1ccccc1[N+](=O)[O-] | – | inconclusive: 0.116 µM [rising, full curve]
52 | CS/C(N)=N/N=C/c1cc(Br)cc(Br)c1O | – | inconclusive: 7.08 µM [falling, partial curve, poor fit]
53 | COc1cc(-c2noc(CCC(N)=O)n2)cc(OC)c1OC | inconclusive: -0.315% | –
54 | Cc1ccc(C(=O)O/N=C(\N)c2cccc([N+](=O)[O-])c2)cc1 | inconclusive: 5.67% | –

Row | SMILES | activity change, negative = inhibition | Potency
55 | COc1ccccc1/C=C/C=N/NC(=O)c1ccncc1 | – | inconclusive: 18.4 µM [falling, single point]
56 | COc1ccccc1N1CCN(C2CCCN(C(=O)c3snnc3C)C2)CC1 (stereo not given) | inconclusive: 5.71% | –
57 | COc1ccccc1N1CCN(C(=O)c2cc(-c3ccc(F)cc3)on2)CC1 | inconclusive: -102% | –
58 | Nc1c(-c2cccc([N+](=O)[O-])c2)nc2ccccn12 | inconclusive: 9.12% | –
59 | N#CC1=C(N)C(C#N)(C#N)[C@H](c2cccnc2)[C@H]2CN(C(=O)OCc3ccccc3)CC=C12 | – | inconclusive: 20.6 µM [cytotoxic, single point]
60 | CCCN(CCC)S(=O)(=O)c1ccc2c(c1)N(CC(=O)NC(C)c1ccccc1)C(=O)CS2 (stereo not given) | inactive: 5.89% | –
61 | Cc1ccccc1Nc1nc(N)nc(CSc2nnc(C)n2C)n1 | inactive: 8.42% | –
62 | Cc1ccc(C(=O)N(CC(C)C)c2c(N)n(Cc3ccccc3)c(=O)[nH]c2=O)o1 | inactive: -6.71% | –
63 | CCOC(=O)c1c(NC(=O)C2COc3ccccc3O2)sc2c1CCN(Cc1ccccc1)C2 (stereo not given) | inactive: 20.5% | –
64 | O=C(NCC1CC1)c1onc(CSc2nc3ccccc3[nH]2)c1C(=O)NCC1CC1 | inconclusive: 25.4% | –
65 | Cc1ccc(C2(c3noc(CN(C)CC4CCCCO4)n3)CCCC2)cc1 (stereo not given) | inconclusive: 7.47% | –
66 | CCCCC(=O)NC(=S)NNC(=O)c1ccc(OC)cc1 | inactive: -0.181% | –
67 | O=C(Cc1ccccc1)Nc1ccc(S(=O)(=O)N2CCCC2)cc1 | inconclusive: -2.81% | –
68 | Cc1cc(C)nc(SCCn2c(N3CC(C)OC(C)C3)nc3c2c(=O)n(C)c(=O)n3C)n1 (stereo not given) | inconclusive: -5.14% | –
69 | C/C(=N\Nc1nc2ccccc2[nH]1)c1cc2ccccc2o1 | – | inconclusive: 3.66 µM [falling, partial curve]
70 | COc1ccc(C(=O)Nc2cc3c(cc2OC)CCCC3)cc1Br | inconclusive: 0.975% | –
71 | Cc1cc(OCC(O)CN2CCc3ccccc3C2)cc(C(C)C)c1 (stereo not given) | – | inconclusive: 0.0891 µM [falling, full curve, poor fit]
72 | Cc1cc(NC(=O)c2cccc(S(=O)(=O)N3CCCCC3)c2)no1 | inconclusive: 4.95% | –
73 | COc1ccc2[nH]c3c(NCCC4=CCCCC4)ncnc3c2c1 | inconclusive: 16.9% | –
74 | CN(C)C(C)(C)C#CC(O)(c1ccccc1)c1ccccc1 | – | inconclusive: 0.708 µM [falling, full curve, poor fit]
75 | COc1cc2c(cc1OC)C(COc1cc(C)cc(C)c1)N(C(=O)COc1ccccc1)CC2 (stereo not given) | inactive: 0.321% | –
76 | CCc1ccc(NC(=O)c2ccc(NC3=NC4CS(=O)(=O)CC4S3)cc2)cc1 (stereo not given) | inconclusive: -2.41% | –
77 | COc1cccc(C2NC(=O)NC(C)=C2C(=O)Nc2ccc(C)cc2)c1 (stereo not given) | inconclusive: 8.84% | –
78 | CC(C)OC(=O)/C(C#N)=C/c1cn(C)c2ccccc12 | inconclusive: 18.1% | –
79 | CCSc1nnc(NC(=O)NC(CC)(C(F)(F)F)C(F)(F)F)s1 | inconclusive: -0.0335% | –
80 | Cc1ccc(S(=O)(=O)N2CCOCC2)cc1C(=O)NC(=S)N1CC(C)CC(C)C1 (stereo not given) | inactive: -20% | –

4 of the compounds above, tab-delimited.
Row	SMILES	activity change, negative = inhibition	Potency
28	CCN1CCN(C(c2cc(OC)ccc2OC)c2nnnn2Cc2ccccc2)CC1 (stereo not given)	inconclusive: -0.168%	–
29	CC(=O)Nc1cccc(NC(=O)c2cccc(-c3ccc(O)cc3)c2)c1	–	inconclusive: 22.4 µM [falling, partial curve, poor fit]
30	COc1ccc(-c2nsc(SCC(=O)Nc3ccc4c(c3)OCO4)n2)cc1	inconclusive: -22.2%	–
31	NC(=O)CC[C@@H]1NC(=O)[C@@H]2CCCN2C(=O)c2cc([N+](=O)[O-])cc(I)c2NCCC[C@@H](C(N)=O)NC1=O	inactive: 0.144%	–
